Earlier results, collected in patent US20070172422A1, “Exponential pattern recognition based cellular targeting compositions, methods and anticancer applications” (priority 2001, published 2007).
At least one structure is not confirmed: it was looked up by name or label, or the drawing left a doubt.

Settings: cited from earlier work

COc1cc2c(cc1O)CCN[C@]21CS[C@@H]2c3c(OC(C)=O)c(C)c4c(c3[C@H](COC1=O)N1[C@@H]2[C@H]2c3c(cc(C)c(OC)c3O)C[C@@H]([C@@H]1O)N2C)OCO4 [Ecteinascidin 743]
concentrations at which cytotoxic: picomolar concentrations
